# Measured values: the supplement of paper PMC11732987, “Enantioselective OTUD7B fragment discovery through chemoproteomics screening and high-throughput optimisation” (Communications Chemistry, 2025)
# Amino acid sequences for entries named in this document (tags omitted). A change or cut given only in a name is not applied to a line headed by its entry. Residues count along the entry.
# UniProt Q15154: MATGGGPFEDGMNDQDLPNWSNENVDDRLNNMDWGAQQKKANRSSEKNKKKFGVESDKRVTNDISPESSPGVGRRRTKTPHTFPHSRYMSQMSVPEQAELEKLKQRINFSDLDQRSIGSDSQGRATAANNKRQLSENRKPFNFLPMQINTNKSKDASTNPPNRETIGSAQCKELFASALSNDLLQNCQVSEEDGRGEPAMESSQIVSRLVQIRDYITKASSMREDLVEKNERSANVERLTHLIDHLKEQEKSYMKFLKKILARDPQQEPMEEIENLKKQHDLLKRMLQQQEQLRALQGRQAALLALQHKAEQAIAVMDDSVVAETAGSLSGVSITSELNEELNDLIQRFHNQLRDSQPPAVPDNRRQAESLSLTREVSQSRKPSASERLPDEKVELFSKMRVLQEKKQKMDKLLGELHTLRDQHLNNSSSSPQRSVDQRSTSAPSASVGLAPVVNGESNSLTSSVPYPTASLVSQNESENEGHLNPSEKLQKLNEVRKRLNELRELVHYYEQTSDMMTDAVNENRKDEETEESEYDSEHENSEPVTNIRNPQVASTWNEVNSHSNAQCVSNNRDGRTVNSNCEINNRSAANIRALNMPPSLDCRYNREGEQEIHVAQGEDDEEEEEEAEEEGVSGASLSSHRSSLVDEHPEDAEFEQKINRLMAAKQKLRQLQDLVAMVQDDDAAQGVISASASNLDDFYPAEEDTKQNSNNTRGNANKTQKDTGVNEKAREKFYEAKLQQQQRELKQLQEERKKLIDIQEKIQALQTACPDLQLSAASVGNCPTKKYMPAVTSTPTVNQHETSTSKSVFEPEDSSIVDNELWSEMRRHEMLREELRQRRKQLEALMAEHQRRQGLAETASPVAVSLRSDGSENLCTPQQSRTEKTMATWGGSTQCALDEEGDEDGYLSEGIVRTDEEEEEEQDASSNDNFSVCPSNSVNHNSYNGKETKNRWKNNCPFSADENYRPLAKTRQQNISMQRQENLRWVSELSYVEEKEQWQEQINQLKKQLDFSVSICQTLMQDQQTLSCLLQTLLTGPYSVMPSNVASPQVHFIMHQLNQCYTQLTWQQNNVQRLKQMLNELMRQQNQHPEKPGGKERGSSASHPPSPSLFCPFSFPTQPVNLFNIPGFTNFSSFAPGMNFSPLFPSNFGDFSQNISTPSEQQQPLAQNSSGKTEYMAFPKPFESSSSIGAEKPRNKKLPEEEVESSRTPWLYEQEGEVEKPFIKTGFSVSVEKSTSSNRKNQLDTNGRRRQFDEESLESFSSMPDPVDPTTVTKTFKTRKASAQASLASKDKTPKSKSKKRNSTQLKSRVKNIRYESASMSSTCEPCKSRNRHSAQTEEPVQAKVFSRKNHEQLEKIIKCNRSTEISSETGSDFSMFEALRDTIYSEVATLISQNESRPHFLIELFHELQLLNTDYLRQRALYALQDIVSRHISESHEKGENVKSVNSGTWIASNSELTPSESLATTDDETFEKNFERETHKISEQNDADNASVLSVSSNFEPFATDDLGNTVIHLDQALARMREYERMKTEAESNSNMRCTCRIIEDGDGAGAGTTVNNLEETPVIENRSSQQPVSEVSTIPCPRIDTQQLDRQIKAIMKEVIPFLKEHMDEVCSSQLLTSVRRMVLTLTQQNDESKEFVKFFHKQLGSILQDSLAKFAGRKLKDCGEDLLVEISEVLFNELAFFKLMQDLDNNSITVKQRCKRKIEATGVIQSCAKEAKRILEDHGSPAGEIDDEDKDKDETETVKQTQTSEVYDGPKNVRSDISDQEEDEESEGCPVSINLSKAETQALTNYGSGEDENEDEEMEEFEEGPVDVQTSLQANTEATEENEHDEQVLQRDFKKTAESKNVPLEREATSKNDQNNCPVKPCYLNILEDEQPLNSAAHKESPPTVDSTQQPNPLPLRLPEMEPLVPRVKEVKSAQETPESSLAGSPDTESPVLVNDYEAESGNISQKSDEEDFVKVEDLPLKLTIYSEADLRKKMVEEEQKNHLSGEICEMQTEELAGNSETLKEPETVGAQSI
# UniProt Q96KB5, 102-121: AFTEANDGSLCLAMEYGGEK
# UniProt P35080: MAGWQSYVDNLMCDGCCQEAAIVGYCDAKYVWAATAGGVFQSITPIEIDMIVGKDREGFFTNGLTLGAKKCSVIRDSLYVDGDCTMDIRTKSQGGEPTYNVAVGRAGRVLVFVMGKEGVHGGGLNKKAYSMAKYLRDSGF
# UniProt Q6PCE3: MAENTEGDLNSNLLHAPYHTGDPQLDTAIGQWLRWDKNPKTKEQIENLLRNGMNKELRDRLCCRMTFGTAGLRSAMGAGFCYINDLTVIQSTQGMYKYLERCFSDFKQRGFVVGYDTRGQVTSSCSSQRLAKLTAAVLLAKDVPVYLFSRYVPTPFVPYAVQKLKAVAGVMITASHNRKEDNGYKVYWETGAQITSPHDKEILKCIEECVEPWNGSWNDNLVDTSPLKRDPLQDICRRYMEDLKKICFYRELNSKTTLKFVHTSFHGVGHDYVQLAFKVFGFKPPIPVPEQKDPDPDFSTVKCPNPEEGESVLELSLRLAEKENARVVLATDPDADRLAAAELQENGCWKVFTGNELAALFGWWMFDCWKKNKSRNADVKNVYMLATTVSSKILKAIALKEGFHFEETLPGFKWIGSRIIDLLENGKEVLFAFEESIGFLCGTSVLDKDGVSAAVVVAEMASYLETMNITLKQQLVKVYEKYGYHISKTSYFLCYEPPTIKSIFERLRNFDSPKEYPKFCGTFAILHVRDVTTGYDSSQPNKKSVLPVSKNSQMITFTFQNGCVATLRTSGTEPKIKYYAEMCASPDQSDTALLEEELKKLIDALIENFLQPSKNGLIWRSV
# UniProt Q16822, whole entry, looked up: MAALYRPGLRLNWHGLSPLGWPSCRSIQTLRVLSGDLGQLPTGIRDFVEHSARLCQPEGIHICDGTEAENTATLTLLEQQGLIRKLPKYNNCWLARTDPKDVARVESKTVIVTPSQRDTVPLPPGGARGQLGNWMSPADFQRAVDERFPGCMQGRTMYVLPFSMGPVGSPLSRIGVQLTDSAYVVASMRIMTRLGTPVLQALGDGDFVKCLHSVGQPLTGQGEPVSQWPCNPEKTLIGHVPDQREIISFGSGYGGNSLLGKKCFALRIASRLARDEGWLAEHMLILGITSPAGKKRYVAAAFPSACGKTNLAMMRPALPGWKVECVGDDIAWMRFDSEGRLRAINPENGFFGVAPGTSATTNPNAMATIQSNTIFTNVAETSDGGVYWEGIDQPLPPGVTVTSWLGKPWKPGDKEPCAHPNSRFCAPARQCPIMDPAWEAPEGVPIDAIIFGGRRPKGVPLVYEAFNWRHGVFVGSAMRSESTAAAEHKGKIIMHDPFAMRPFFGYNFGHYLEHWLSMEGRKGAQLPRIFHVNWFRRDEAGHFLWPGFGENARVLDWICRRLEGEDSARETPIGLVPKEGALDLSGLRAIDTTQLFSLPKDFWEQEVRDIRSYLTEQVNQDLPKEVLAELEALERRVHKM
# UniProt O94913, whole entry, looked up: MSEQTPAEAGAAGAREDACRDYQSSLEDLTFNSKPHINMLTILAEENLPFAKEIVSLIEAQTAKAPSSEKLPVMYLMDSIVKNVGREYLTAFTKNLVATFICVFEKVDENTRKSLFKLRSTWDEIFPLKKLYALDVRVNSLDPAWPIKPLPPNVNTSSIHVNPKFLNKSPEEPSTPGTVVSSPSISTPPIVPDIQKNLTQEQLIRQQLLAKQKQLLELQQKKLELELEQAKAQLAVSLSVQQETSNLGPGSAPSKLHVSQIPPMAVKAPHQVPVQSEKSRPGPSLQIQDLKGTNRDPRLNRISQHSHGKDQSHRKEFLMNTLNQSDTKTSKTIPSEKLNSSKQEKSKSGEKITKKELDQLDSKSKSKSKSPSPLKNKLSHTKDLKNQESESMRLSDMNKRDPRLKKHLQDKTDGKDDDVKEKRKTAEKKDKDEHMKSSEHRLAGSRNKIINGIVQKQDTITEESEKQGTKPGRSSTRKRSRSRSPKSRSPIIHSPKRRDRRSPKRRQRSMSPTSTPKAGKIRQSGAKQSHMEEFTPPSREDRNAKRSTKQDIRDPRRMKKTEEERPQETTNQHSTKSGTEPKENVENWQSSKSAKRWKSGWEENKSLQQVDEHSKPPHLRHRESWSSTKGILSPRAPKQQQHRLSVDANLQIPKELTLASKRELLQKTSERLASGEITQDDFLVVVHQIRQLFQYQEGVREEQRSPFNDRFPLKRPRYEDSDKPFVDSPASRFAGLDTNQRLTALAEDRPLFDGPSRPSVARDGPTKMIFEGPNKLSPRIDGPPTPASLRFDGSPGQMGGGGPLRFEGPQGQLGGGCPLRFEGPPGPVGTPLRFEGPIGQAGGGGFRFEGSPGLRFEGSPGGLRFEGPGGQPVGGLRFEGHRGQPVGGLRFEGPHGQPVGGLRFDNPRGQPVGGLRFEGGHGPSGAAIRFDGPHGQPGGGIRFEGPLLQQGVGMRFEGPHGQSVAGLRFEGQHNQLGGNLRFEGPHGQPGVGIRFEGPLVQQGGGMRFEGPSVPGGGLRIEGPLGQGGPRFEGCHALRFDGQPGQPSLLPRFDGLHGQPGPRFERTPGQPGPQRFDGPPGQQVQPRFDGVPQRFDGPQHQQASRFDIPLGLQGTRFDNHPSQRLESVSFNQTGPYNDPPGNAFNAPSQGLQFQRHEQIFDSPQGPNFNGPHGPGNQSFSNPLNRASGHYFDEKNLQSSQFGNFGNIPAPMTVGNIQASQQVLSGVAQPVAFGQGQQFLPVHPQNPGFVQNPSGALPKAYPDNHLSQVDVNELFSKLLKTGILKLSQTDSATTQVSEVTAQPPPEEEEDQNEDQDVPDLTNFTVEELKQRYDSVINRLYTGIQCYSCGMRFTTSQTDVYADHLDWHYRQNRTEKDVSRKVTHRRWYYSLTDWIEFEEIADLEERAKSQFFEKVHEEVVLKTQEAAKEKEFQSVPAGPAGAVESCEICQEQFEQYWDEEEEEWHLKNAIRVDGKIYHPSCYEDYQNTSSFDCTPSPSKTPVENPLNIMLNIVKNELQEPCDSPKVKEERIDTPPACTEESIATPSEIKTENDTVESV
# UniProt O95613, 550-572: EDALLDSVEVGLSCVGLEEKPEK
# UniProt O95613, 2144-2164: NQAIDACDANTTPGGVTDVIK
# UniProt Q53EL6: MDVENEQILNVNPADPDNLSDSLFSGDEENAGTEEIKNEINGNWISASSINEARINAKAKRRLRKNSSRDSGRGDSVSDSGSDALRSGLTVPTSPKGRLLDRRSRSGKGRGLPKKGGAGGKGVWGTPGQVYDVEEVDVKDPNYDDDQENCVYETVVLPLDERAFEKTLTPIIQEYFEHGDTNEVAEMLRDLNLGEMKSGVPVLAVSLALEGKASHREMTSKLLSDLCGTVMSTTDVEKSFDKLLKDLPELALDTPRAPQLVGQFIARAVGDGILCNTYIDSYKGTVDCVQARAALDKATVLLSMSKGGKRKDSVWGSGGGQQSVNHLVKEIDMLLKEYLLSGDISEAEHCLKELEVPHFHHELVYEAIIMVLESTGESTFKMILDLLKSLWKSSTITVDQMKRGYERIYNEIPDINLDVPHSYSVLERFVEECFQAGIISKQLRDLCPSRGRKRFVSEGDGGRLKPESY
# UniProt Q8WZ82, 37-58: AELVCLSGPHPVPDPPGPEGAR
# UniProt P12955: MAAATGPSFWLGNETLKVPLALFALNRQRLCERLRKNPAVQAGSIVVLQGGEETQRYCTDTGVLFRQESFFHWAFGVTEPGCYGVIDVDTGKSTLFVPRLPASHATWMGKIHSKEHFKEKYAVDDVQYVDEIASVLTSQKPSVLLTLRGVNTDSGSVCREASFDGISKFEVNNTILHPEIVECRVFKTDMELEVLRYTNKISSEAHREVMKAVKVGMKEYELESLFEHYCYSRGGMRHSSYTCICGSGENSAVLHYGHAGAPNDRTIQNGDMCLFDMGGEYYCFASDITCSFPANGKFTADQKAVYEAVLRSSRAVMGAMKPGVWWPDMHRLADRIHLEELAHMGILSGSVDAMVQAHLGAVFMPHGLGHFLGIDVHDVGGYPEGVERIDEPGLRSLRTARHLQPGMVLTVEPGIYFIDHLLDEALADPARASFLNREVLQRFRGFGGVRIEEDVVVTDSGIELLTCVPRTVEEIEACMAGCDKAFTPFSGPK
# UniProt Q96RD7, 167-192: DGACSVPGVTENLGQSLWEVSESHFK
# UniProt O00264: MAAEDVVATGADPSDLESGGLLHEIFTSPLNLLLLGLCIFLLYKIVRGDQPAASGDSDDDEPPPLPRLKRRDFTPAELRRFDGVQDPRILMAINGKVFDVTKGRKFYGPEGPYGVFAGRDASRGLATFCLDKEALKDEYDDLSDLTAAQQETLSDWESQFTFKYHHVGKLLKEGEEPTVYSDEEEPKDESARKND
# UniProt Q13371: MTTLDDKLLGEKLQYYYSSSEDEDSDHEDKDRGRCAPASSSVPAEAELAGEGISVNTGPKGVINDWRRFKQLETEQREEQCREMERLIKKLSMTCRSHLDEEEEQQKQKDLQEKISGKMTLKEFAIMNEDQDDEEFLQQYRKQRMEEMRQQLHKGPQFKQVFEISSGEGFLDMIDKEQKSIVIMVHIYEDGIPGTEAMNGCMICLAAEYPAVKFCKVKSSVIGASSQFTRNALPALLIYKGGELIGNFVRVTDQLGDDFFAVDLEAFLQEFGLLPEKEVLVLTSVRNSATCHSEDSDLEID
# UniProt Q96HC4, 206-225: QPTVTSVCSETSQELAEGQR
# UniProt Q29RF7, 518-538: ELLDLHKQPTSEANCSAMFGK
# This is one part of the list. The data scatter; read single values as rough.
# Key:
# [1] = compound: ClCC(=O)N[C@@H]1CCCc2ccccc12; assay: log2 mean competition ratio of IA-DTB cysteine labelling (DMSO/compound) (log2 ratio); higher = stronger cysteine engagement by compound; conditions: treatment time: 4 h, cell line lysate: HEK293T
# Protocol: (§1)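 IA-DTB competitive cysteine chemoproteomics in HEK293T RIPA lysate. Lysates were treated with compound 29 or 30 at 50 or 200 µM for 4 h, then IA-DTB (500 µM, 1 h), trypsin-digested, NeutrAvidin-enriched and analysed by diaPASEF. Competition ratio = intensity DMSO / intensity compound (n=4 treated, n=64 DMSO); binding: mean log2 CR ≥ 1 and p ≤ 0.05 plus QC filters. Target is the cysteine site.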
# [2] = compound: ClCC(=O)N[C@H]1CCCc2ccccc12; assay: as above; conditions: treatment time: 4 h, cell line lysate: HEK293T
# Protocol: as §1
Target,log2 mean competition ratio ([1]; 50 µM),log2 mean competition ratio ([1]; 200 µM),log2 mean competition ratio ([2]; 50 µM),log2 mean competition ratio ([2]; 200 µM)
PGM3 C249,0.264,0.137,-0.297,0.126
PCM1 C1585 (UniProt Q15154),-0.155,0.0855,0.227,0.173
PCIF1 C524 (UniProt Q9H4Z3),-0.153,-0.0715,0.233,0.358
PBK C300 (UniProt Q96KB5),-0.277,-0.258,-0.618,-0.6
PDCD11 C241 (UniProt Q14690),-0.024,-0.139,-0.287,-0.133
PAN2 C263 (UniProt Q504Q3),-0.286,-0.0853,-0.0832,0.113
PDHA1 C261 (UniProt P08559),0.0663,-0.164,-0.332,-0.0952
PDCD11 C694 (UniProt Q14690),-0.177,-0.238,-0.296,-0.184
PCMTD1 C238 (UniProt Q96MG8),-0.123,0.109,0.335,0.178
PC C739 (UniProt P11498),-0.0353,0.146,0.0268,0.235
PFN2 C84 (UniProt P35080),-0.00132,-0.277,0.0668,-0.0923
PGM2L1 C348 (UniProt Q6PCE3),-0.174,-0.08,0.081,-0.0456
PCM1 C1717 (UniProt Q15154),0.127,0.0425,0.365,0.0515
PALB2 C162 (UniProt Q86YC2),-0.194,0.0638,-0.479,0.0594
PCK2 C559 (UniProt Q16822),0.067,0.188,-0.115,0.188
PGM1 C374 (UniProt P36871),-0.15,-0.0719,-0.459,-0.269
PFKL C708 (UniProt P17858),0.123,0.227,0.0578,0.268
PCF11 C1518 (UniProt O94913),-0.0986,0.0284,-0.38,0.0755
PDLIM7 C341 (UniProt Q9NR12),-0.127,-0.0772,0.113,-0.0671
OXCT1 C504 (UniProt P55809),-0.0882,0.0317,-0.221,0.178
PCNT C563 (UniProt O95613),-0.196,-0.551,0.199,-0.456
PBLD C153 (UniProt P30039),-0.426,-0.274,0.0353,-0.301
OTUD4 C686 (UniProt Q01804),-0.323,1.85,0.267,-0.0059

# Look-ups from the list.
# In log2 mean competition ratio ([1]; 200 µM), PC C739 (UniProt P11498) is listed with 0.146
# In log2 mean competition ratio ([1]; 50 µM), PBLD C153 (UniProt P30039) is listed with -0.426

# (continued)

Target,log2 mean competition ratio ([1]; 50 µM),log2 mean competition ratio ([1]; 200 µM),log2 mean competition ratio ([2]; 50 µM),log2 mean competition ratio ([2]; 200 µM)
PFKM C709,0.282,0.64,0.224,0.494
PDCD4 C275 (UniProt Q53EL6),0.124,0.307,0.288,0.0311
PAF1 C36 (UniProt Q8N7H5),0.037,0.0824,0.11,0.211
PDE5A C447 (UniProt O76074),0.024,0.33,0.167,0.304
PFN1 C128,-0.109,0.471,-0.249,0.412
PCNT C2059 (UniProt O95613),0.12,-0.0419,-0.126,0.0619
PCBP2 C54,-0.0372,-0.0922,-0.0287,0.0308
PCNT C2150 (UniProt O95613),-0.601,-0.008,-0.0746,0.0912
OVCA2 C41 (UniProt Q8WZ82),-0.342,0.258,-0.827,-0.0551
PEPD C58 (UniProt P12955),0.118,-0.0693,-0.234,-0.11
PANX1 C170 (UniProt Q96RD7),-0.117,-0.24,0.279,-0.0421
PGRMC1 C129 (UniProt O00264),-0.033,0.174,-0.513,-0.13
PDCL C291 (UniProt Q13371),0.14,-0.27,0.672,-0.282
PAX6 C52,0.494,0.0873,0.359,0.268
PALB2 C630 (UniProt Q86YC2),0.173,0.0452,-0.0685,0.291
PDLIM5 C213 (UniProt Q96HC4),-0.601,0.0645,0.258,0.231
PDS5A C532 (UniProt Q29RF7),-0.028,0.424,-0.258,0.377
PBK C112 (UniProt Q96KB5),0.112,-0.0163,0.51,-0.183
PCM1 C582 (UniProt Q15154),-0.0283,0.116,-0.0367,0.262
PCBP1 C158 (UniProt Q15365),-0.199,-0.186,-0.283,-0.163
PFKM C631,-0.0763,0.412,0.368,0.0879
PDS5A C589 (UniProt Q29RF7),-0.27,0.431,0.14,0.428
